Here are results for two molecules from article doi:10.1101/821637.

Positions count from the first letter of the chain named. No constants are given. Whether binding was seen depends on the method and setting. In cells and extracts the contact can be indirect. Some entries that bind do so weakly or less than the wild type. For part of these data: Where a sequence is shown, tags or fusion partners need not be part of it.

Experiment in all cases: co-IP
The target of assay [1] is T1, Myc-tagged ECH1 mutant D176N-Myc (mouse) (UniProt O35459).
T1 sequence: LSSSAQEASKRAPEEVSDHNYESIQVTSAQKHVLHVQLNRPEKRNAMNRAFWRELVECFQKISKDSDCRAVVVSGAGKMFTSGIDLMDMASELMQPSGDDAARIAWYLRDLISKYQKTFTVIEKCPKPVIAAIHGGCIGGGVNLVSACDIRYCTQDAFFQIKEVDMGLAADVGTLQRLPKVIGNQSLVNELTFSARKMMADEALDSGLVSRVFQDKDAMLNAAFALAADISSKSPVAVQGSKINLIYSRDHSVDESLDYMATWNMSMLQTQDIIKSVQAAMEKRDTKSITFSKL

In assay [2] the target is T2, Myc-tagged mouse ECH1 construct (ECH1-Myc) (mouse) (UniProt O35459).
T2 sequence: T1 sequence with N143D

Assay [3] has as its target T3, endogenous UCP3 of differentiated C2C12 myotubes (mouse (endogenous in C2C12)) (UniProt P56501).
T3 sequence: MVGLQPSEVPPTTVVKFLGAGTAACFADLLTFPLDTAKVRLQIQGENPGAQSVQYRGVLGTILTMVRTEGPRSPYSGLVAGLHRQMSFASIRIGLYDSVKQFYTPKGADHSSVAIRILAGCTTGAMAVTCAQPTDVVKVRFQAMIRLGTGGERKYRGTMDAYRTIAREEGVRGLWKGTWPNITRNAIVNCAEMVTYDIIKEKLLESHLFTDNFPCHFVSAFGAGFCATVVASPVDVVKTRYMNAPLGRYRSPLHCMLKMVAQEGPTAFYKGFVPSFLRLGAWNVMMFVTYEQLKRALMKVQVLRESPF

B1: V5-tagged mouse UCP3 construct (UCP3-V5) (protein, UniProt P56501 1-308)
chain: T3 sequence
Consider B1, for which the binding result in assay [1] and in assay [2] was “binds” throughout.

B2: endogenous ECH1 of differentiated C2C12 myotubes (enzyme, UniProt O35459 34-327)
chain: T1 sequence with N143D
Take B2: the binding result in assay [3] is “binds”.
